Here are results for two substances from PMC9769691.

The experiment has as its target Nosema bombycis Sec31-1 (NbSec31-1) (Nosema bombycis) (UniProt R0MLW8). The experiment can be described thus: two-hybrid; bait in pGBKT7-BK and prey in pGADT7-AD cotransformed into Y2H Gold yeast cells; colonies from SD-Leu/-Trp plates cultured on SD-Ade/-His/-Leu/-Trp plates containing X-alpha-gal at 28°C.

Results are given in words; binding and its absence hold for the method and conditions named. Binding calls can cover weak binding; strength is not graded here.

As to “Nosema bombycis Sec13 (NbSec13) (from UniProt R0KZ01)”, the binding result is “binds”.
As for “Nosema bombycis Sec23-1 (NbSec23-1) (from UniProt R0MF96)”, the entry is “binds”.
